Measurements published in PubChem BioAssay AID1487 (National Center for Advancing Translational Sciences (NCATS), 2009).
The list shows a part of the results. These are further read-outs of the screen, such as a control signal, another cell line or another target. No call is given for them. Compounds called inactive in the main read-out are mostly missing here. Words in brackets tell the shape of the fitted curve; partial curves, single points and poor fits give uncertain potencies.

Assay: qHTS Assay for Modulators of Lamin A Splicing
Settings: HeLa LMNA splicing GFP/RFP minigene ratio, 48 h
Method in brief: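 Read-out is the ratio of GFP to DsRed2 object intensity, acquired by 488 nm laser-scanning cytometry on HeLa lamin A-EGFP minigene reporter cells. Compound incubation 48 hrs at 37 °C in Opti-MEM with 2% FBS; DMSO 0.5% final.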

[1] = measured here: RFP viability control channel
[2] = measured here: GFP splicing reporter channel

Row | SMILES | AC50 [1] | AC50 [2]
1 | CCn1cc(C(=O)NCCCOC)c(=O)c2cc(S(=O)(=O)N(C)C)ccc21 | 35.5 µM [rising, single point] | –
2 | CCCCc1ccc(NC(=S)NCc2ccccc2OC)cc1 | 1.26 µM [falling, partial curve] | 0.794 µM [falling, partial curve, poor fit]
3 | CCN(CC)S(=O)(=O)c1ccc(Cl)c(NC(=O)COC(=O)c2c(C)noc2C)c1 | 31.6 µM [rising, single point] | 25.1 µM [rising, single point]
4 | COc1ccc(C2C(=O)N(C3CCCCC3)CC(=O)N2CCc2ccc(C)cc2)cc1OC (configuration not stated) | 12.6 µM [falling, partial curve, poor fit] | 15.8 µM [falling, partial curve]
5 | NC(CS)C(=O)O (configuration not stated) | 2.82 µM [falling, single point] | 3.55 µM [falling, partial curve, poor fit]
6 | Clc1ccc(OCCCCN2CCc3ccccc3C2)cc1 | – | 0.891 µM [falling, partial curve]
7 | COc1ccc(C(C#N)c2ccc(Cl)nn2)cc1 (configuration not stated) | 1.26 µM [falling, single point] | –
8 | Cc1ccc2cc(CCNC(=O)c3ccc4c(c3)OCO4)c(=O)[nH]c2c1C | 12.6 µM [rising, partial curve, poor fit] | 11.2 µM [rising, partial curve, poor fit]
9 | Cn1c(=O)c(C(=O)CCl)c(N)n(CC2CC2)c1=O | 8.91 µM [rising, partial curve, poor fit] | –
10 | Cc1ccccc1NC(=S)Nc1ccc(Br)cc1 | 10 µM [rising, partial curve] | –
11 | Cc1ccc(-n2nnnc2SCc2nnc(-c3ccccc3Br)o2)c(C)c1 | 17.8 µM [rising, partial curve] | –
12 | CCCCNC(=S)N(C)N=C1CCC(c2ccccc2)CC1 (configuration not stated) | 35.5 µM [rising, single point] | –
13 | Cc1cccc(CSCCNC(=O)Nc2ccccc2)c1 | 17.8 µM [rising, single point] | –
14 | COc1ccc(/C=C/C(=O)CC(O)(c2ccccc2)C(F)(F)F)cc1 (configuration not stated) | 22.4 µM [falling, single point] | 35.5 µM [falling, single point]
15 | O=C(O)c1cc2c(s1)-c1ccccc1CC2 | 35.5 µM [rising, single point] | –
16 | COc1ccc(OC)c(C2SCCN2S(=O)(=O)c2cccc(C(F)(F)F)c2)c1 (configuration not stated) | 35.5 µM [rising, single point] | –
17 | CCN1CCN(C(c2cccc(F)c2)c2c(O)cc(C)n(CCOC)c2=O)CC1 (configuration not stated) | 5.62 µM [rising, single point] | –
18 | CC(=O)NS(=O)(=O)c1ccc(NC(=S)NC(=O)COc2ccccc2C)cc1 | 10 µM [rising, partial curve] | –
19 | CCOC(=O)c1c(N)n(-c2ccccc2CC)c2nc3ccccc3nc12 | 31.6 µM [rising, single point] | 15.8 µM [rising, single point]

Row | SMILES | AC50 [1] | AC50 [2]
20 | CC(C)(CNc1ccc([N+](=O)[O-])cc1C#N)N1CCOCC1 | 0.447 µM [rising, full curve, poor fit] | –
21 | CC(C)C(=O)Nc1ccc2nc(SCC(=O)N3CCOCC3)sc2c1 | 0.562 µM [rising, full curve, poor fit] | 0.398 µM [rising, full curve]
22 | CCOCCCNCc1ccc(OCC(=O)N2CCOCC2)c(OC)c1 | 0.00501 µM [falling, full curve, poor fit] | 11.2 µM [falling, partial curve, poor fit]
23 | CC1(OC(=O)c2ccc(Cl)nc2)C(=O)Cc2cc(-c3ccsc3)ncc2C1=O (configuration not stated) | 0.112 µM [falling, partial curve, poor fit] | 3.98 µM [falling, single point]
24 | COc1ccccc1-c1nc(SCC(=O)NCC2CCCO2)c2c(=O)n(C)c(=O)n(C)c2n1 (configuration not stated) | 0.158 µM [falling, full curve] | 0.0282 µM [falling, full curve, poor fit]
25 | Cc1cc(C(=O)NN=C2CCCCC2)c2ccccc2n1 | 35.5 µM [rising, single point] | –
26 | CSc1ccc(C2c3[nH]c4ccccc4c3CCN2C(=O)CCc2ccccc2)cc1 (configuration not stated) | 2 µM [rising, full curve] | –
27 | O=C(c1ccc(F)cc1)C(CN1CCOCC1)c1ccccc1 (configuration not stated) | 5.62 µM [rising, single point] | –
28 | CNC(=S)N(CCc1c(C)[nH]c2ccc(Cl)cc12)Cc1cc(OC)c(OC)c(OC)c1 | 0.224 µM [falling, partial curve, poor fit] | –
29 | COc1cccc(/C=N/n2c(-c3ccco3)nc3ccccc3c2=O)c1OC | 0.0501 µM [rising, partial curve, poor fit] | –
30 | C=CC[n+]1c(-c2ccc(C)cc2)csc1NNC(=O)Nc1ccccc1 | 22.4 µM [falling, single point] | 35.5 µM [falling, single point]
31 | COc1ccc(N/N=C(/C(N)=O)C2=NC(C)(C)Cc3ccccc32)cc1 | 12.6 µM [rising, single point] | –
32 | CC1CCCN(c2ccc(C(=O)NCc3ccco3)cc2[N+](=O)[O-])C1 (configuration not stated) | 14.1 µM [rising, single point] | 11.2 µM [rising, single point]
33 | O=C(NCC(c1cccs1)N1CCOCC1)c1ccccc1NS(=O)(=O)c1cccc([N+](=O)[O-])c1 (configuration not stated) | 15.8 µM [rising, partial curve] | –
34 | CC(C)c1onc(C(=O)NC2CCCC2)c1[N+](=O)[O-] | 20 µM [rising, single point] | –
35 | COc1ccc(N2C(=O)CSC2c2cccc(OC)c2OC)cc1 (configuration not stated) | 31.6 µM [rising, single point] | 0.00501 µM [falling, full curve, poor fit]
36 | O=C(c1ccccc1)c1coc2c1C(=O)c1ccccc1C2=O | – | 25.1 µM [falling, single point]
37 | Nc1cnn(C2CCCO2)c(=O)n1 (configuration not stated) | 0.0562 µM [rising, full curve, poor fit] | 0.0794 µM [rising, full curve]
38 | Cc1ccc(C(=O)Nc2ccc(Br)cc2)cc1S(=O)(=O)N1CCOCC1 | 0.02 µM [falling, full curve, poor fit] | –

Row | SMILES | AC50 [1] | AC50 [2]
39 | O=C(/C=C/c1cccc([N+](=O)[O-])c1)N1CCN(C(=O)c2ccco2)CC1 | – | 17.8 µM [rising, single point]
40 | C#C[C@]1(O)CC[C@@H]2[C@H]3CCC4=Cc5oncc5C[C@]4(C)[C@@H]3CC[C@@]21C | 3.55 µM [falling, partial curve, poor fit] | 0.501 µM [falling, full curve, poor fit]
41 | COCCn1c(SCC(=O)/C=C2\N(C)c3ccccc3C2(C)C)nnc1-c1ccncc1 | 15.8 µM [rising, single point] | –
42 | Cc1cc(C)c(NC(=O)Cn2c(SCC(=O)NCc3ccccc3)nc3ccccc32)c(C)c1 | 4.47 µM [falling, full curve, poor fit] | –
43 | CCOC(=O)C1CCN(S(=O)(=O)c2cccc(-c3cn4cccnc4n3)c2)CC1 | 35.5 µM [rising, single point] | –
44 | COc1cc2c(cc1OC)CN(C(=O)c1cc(=O)c3ccccc3o1)CC2 | 5.01 µM [rising, single point] | –
45 | COC(=O)c1sccc1S(=O)(=O)N(CC(=O)NCc1ccccc1)c1ccccc1 | 0.0112 µM [falling, full curve, poor fit] | –
46 | COc1ccc(C(=O)c2ccc(Br)cc2)cc1 | 25.1 µM [falling, single point] | 14.1 µM [falling, single point]
47 | Cc1c(C(=O)N(C)Cc2ccccc2)oc2ccc(S(=O)(=O)N3CCCC3)cc12 | 8.91 µM [rising, partial curve] | 11.2 µM [rising, partial curve, poor fit]
48 | COc1ccc(Nc2ncnc3c2cnn3-c2ccc(C)cc2C)cc1 | 5.62 µM [falling, partial curve] | –
49 | COc1ccc(/C=C/c2nc(N)nc(-c3ccccc3O)n2)cc1OC | 22.4 µM [rising, partial curve] | –
50 | O=C(O)CC12CC3CC(C1)CC(n1cncn1)(C3)C2 | 0.355 µM [rising, full curve, poor fit] | 0.0631 µM [rising, partial curve, poor fit]
51 | O=C(N/N=C/c1cccs1)C1COc2ccccc2O1 (configuration not stated) | 35.5 µM [rising, single point] | –
52 | Cc1sc(NC(=O)c2cccs2)nc1-c1ccccc1 | 15.8 µM [rising, partial curve] | 11.2 µM [rising, partial curve, poor fit]
53 | O=C(OCC(=O)N1CCc2ccccc21)c1c2c(nc3ccccc13)CCCC2 | 31.6 µM [rising, single point] | –
54 | CCC(O)(CC)C(=O)NN(C(=O)CCl)c1ccccc1 | 10 µM [rising, partial curve] | –
55 | CC(C)(C)OC(=O)N1CCC(c2c(C(=O)N3CCc4ccccc4C3)cnn2-c2ccc(Cl)cc2)CC1 | 35.5 µM [rising, single point] | –
56 | Nc1nc(NCc2ccco2)nc(N2CCCC2)c1[N+](=O)[O-] | 0.631 µM [falling, full curve, poor fit] | 0.224 µM [falling, full curve, poor fit]
